We go through 1 compound from US9040307B2, “Fluorescent pH detector system and related methods” (Blood Cell Storage, Inc., priority 2011, dated 2015).

A short description of the data set: Absorbance and emission spectra versus pH of SNAFL analogs in solution. Conditions: free SNAFL analogs.

Structures are written as SMILES.

Take `O=C(O)CCc1cc2c(-c3ccccc3C(=O)O)c3ccc4cc(O)c(Cl)cc4c3oc-2cc1=O` [EBIO-3]: the “pH at which more sensitive to changes” value was roughly 6.5.
